Laboratory results reported in patent publication US8859615B2, “Compounds, compositions and methods for reducing toxicity and treating or preventing diseases” (priority 2008, dated 2014).

Test system: human mammary carcinoma MX-1 cells
Experiment: In vitro drug combination (median-effect / combination index, DRI) against MX-1 cell growth (Tables 5, 5A)
Assay type: cell-based
Conditions: Table 5; MX-1, 72 hrs; shape of the dose-effect curve
Description: The data in Tables 2X, 3A-E, 4, 5, and 6 were obtained using the cell counting kit-8 (CCK-8) tetrazolium assay in a 96-well microplate. Five to seven concentrations of each compound in triplicate were used, and the IC50 values were determined by CompuSyn software automation (Chou T C. and Martin N. ComboSyn, Inc., 2006) based on the median-effect equation and plot (Chou T C. J. Theor. Biol. 59:235-276, 1976; Chou T C. Pharmacol. Rev. 58: 621-681, 2006). […] The r value defines the correlation coefficient of the median-effect plot which signifies the conformity to the mass-action law principle (Chou T C. J. Theor. Biol. 59:235-276, 1976; Chou T C. Pharmacol. Rev. 58:621-681, 2006). These parameters were determined by CompuSyn simulation (available at http://www.combosyn.com).
Efficacy of panaxytriol in combination with Fludelone (an illustrative tubulin-binding anticancer agent) was measured according to procedures described in more detail by Chou et al. (1984) Adv. Enz. Regul., 22:27-55, Chou et al. (1994) Nat'l Cancer Inst., 86:1517-1524, and Chou (2006) Pharmacological Reviews, 68:621-681. […] DRI quantitates synergy as how many fold less of a dose is required to obtain a given level of effect for a combination of drugs versus the same effect for an individual component of the combination.

Compound | Dose-effect parameter m
C/C(=C\c1csc(C)n1)[C@@H]1C/C=C(/C(F)(F)F)C/C=C/[C@H](C)[C@H](O)[C@@H](C)C(=O)C(C)(C)[C@@H](O)CC(=O)O1 [Fludelone] | 0.619
C=C[C@@H](O)C#CC#CC[C@@H](O)[C@H](O)CCCCCCC [panaxytriol] | 2.600
